# Measured values: the supplement of paper PMC8728848
# The other results are listed elsewhere or left out.
# B1: GS13814A-bth-462-26-462 (Bacteroides thetaiotaomicron) (protein)
# chain: DDRDNLMVNDQIGLLHSTYTETEIFRGMDTPYQLFVIKSGKGKQETEVSISVDETVLQSYNTDNGTSIQLLPSDCYTILQPALRLNDSDYRKAFDIKWNADRLSDLLSTGKEYGLPIQMSVVQNFISADDERLKTIIVPTIKEPYLQMDVPGMSPVTDFMPTFGDLNERELFVKIRTNYSNDEDISFQIEVDPQLVIDYNTAHGTAYKMLPESSFTVDNKGVILTGMKETFIKIKYHKKGLIPEEGTYLFGDYVLPLRITSVSKYGISPDAASKLYTVKFQPDPIDKKGWSVIDFNNCCTQDGGWYLNMGWGVESLIDNNPGTQWLCRWDVKEPLPYYFVFDMGKEYTLFRFGFANPVAPAAHVWAGTSKAGYVEASIDNENWVKLKDWTSPKIGEPNVNMDVPATQARYIRFVITDTYPTYDGLRVSLGEVYAWGM
# Columns and labels:
# Experiment in all cases: glycan array binding signal (z-score within array); higher = stronger binding
# Conditions in all cases: glycan notation: IUPAC condensed, linker removed
# [1] = molecular target: Gal(a1-3)[Gal(a1-4)]Gal(b1-4)GlcNAc
# Outline: (§1)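 Negative Z-scores can be read as non-binding. The Z-score is calculated within each array and then averaged across arrays of one protein sequence at different concentrations or buffers and across linkers. Arrays, 3228 in all, were curated from the Consortium for Functional Glycomics database and kept only where the protein sequence was available.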
# [2] = molecular target: Gal(a1-4)Gal(b1-3)GlcNAc(b1-2)Man(a1-3)[Gal(a1-4)Gal(b1-3)GlcNAc(b1-2)Man(a1-6)]Man(b1-4)GlcNAc(b1-4)GlcNAc
# Outline: as §1
# [3] = molecular target: Gal(a1-4)Gal(b1-4)Glc
# Outline: as §1
# [4] = molecular target: Gal(a1-4)Gal(b1-4)GlcNAc
# Outline: as §1
# [5] = molecular target: Gal(a1-4)Gal(b1-4)GlcNAc(b1-2)Man(a1-3)[Gal(a1-4)Gal(b1-4)GlcNAc(b1-2)Man(a1-6)]Man(b1-4)GlcNAc(b1-4)GlcNAc
# Outline: as §1
# [6] = molecular target: Gal(a1-4)Gal(b1-4)GlcNAc(b1-3)Gal(b1-4)Glc
# Outline: as §1
# [7] = molecular target: Gal(a1-4)GlcNAc
# Outline: as §1
# [8] = molecular target: Gal(a1-6)Glc
# Outline: as §1
# [9] = molecular target: Gal(b1-2)Gal
# Outline: as §1
# [10] = molecular target: Gal(b1-3)Gal
# Outline: as §1
# [11] = molecular target: Gal(b1-3)Gal(b1-4)GlcNAc
# Outline: as §1
# [12] = molecular target: Gal(b1-3)GalNAc
# Outline: as §1
# [13] = molecular target: Gal(b1-3)GalNAc(a1-3)[Fuc(a1-2)]Gal(b1-4)Glc
# Outline: as §1
# [14] = molecular target: Gal(b1-3)GalNAc(a1-3)[Fuc(a1-2)]Gal(b1-4)GlcNAc
# Outline: as §1
# [15] = molecular target: Gal(b1-3)GalNAc(b1-3)Gal
# Outline: as §1
# [16] = molecular target: Gal(b1-3)GalNAc(b1-3)Gal(a1-4)Gal(b1-4)Glc
# Outline: as §1
# [17] = molecular target: Gal(b1-3)GalNAc(b1-4)Gal(b1-4)Glc
# Outline: as §1
# [18] = molecular target: Gal(b1-3)GalNAc(b1-4)[Neu5Ac(a2-3)]Gal(b1-4)Glc
# Outline: as §1
# [19] = molecular target: Gal(b1-3)GlcNAc
# Outline: as §1
# [20] = molecular target: Gal(b1-3)GlcNAc(a1-3)Gal(b1-4)GlcNAc
# Outline: as §1
# [21] = molecular target: Gal(b1-3)GlcNAc(a1-6)Gal(b1-4)GlcNAc
# Outline: as §1
# [22] = molecular target: Gal(b1-3)GlcNAc(b1-2)Man
# Outline: as §1
# [23] = molecular target: Gal(b1-3)GlcNAc(b1-2)Man(a1-3)[Gal(b1-3)GlcNAc(b1-2)Man(a1-6)]Man(b1-4)GlcNAc(b1-4)GlcNAc
# Outline: as §1
# [24] = molecular target: Gal(b1-3)GlcNAc(b1-2)Man(a1-3)[Gal(b1-3)GlcNAc(b1-2)Man(a1-6)]Man(b1-4)GlcNAc(b1-4)[Fuc(a1-6)]GlcNAc
# Outline: as §1
# [25] = molecular target: Gal(b1-3)GlcNAc(b1-2)Man(a1-3)[GlcNAc(b1-4)][Gal(b1-3)GlcNAc(b1-2)Man(a1-6)]Man(b1-4)GlcNAc(b1-4)GlcNAc
# Outline: as §1
# [26] = molecular target: Gal(b1-3)GlcNAc(b1-2)[Gal(b1-3)GlcNAc(b1-6)]Man(a1-6)[Gal(b1-3)GlcNAc(b1-2)Man(a1-3)]Man(b1-4)GlcNAc(b1-4)GlcNAc
# Outline: as §1
# [27] = molecular target: Gal(b1-3)GlcNAc(b1-3)Gal(b1-3)GlcNAc
# Outline: as §1
# [28] = molecular target: Gal(b1-3)GlcNAc(b1-3)Gal(b1-4)Glc
# Outline: as §1
# [29] = molecular target: Gal(b1-3)GlcNAc(b1-3)Gal(b1-4)GlcNAc
# Outline: as §1
# [30] = molecular target: Gal(b1-3)GlcNAc(b1-3)Gal(b1-4)GlcNAc(b1-2)Man(a1-3)[Gal(b1-3)GlcNAc(b1-3)Gal(b1-4)GlcNAc(b1-2)Man(a1-6)]Man(b1-4)GlcNAc(b1-4)GlcNAc
# Outline: as §1
# [31] = molecular target: Gal(b1-3)GlcNAc(b1-3)Gal(b1-4)GlcNAc(b1-2)[Gal(b1-3)GlcNAc(b1-3)Gal(b1-4)GlcNAc(b1-6)]Man(a1-6)[Gal(b1-3)GlcNAc(b1-3)Gal(b1-4)GlcNAc(b1-2)Man(a1-3)]Man(b1-4)GlcNAc(b1-4)[Fuc(a1-6)]GlcNAc
# Outline: as §1
# [32] = molecular target: Gal(b1-3)GlcNAc(b1-3)Gal(b1-4)GlcNAc(b1-3)Gal(b1-4)GlcNAc(b1-2)[Gal(b1-3)GlcNAc(b1-3)Gal(b1-4)GlcNAc(b1-3)Gal(b1-4)GlcNAc(b1-6)]Man(a1-6)[Gal(b1-3)GlcNAc(b1-3)Gal(b1-4)GlcNAc(b1-3)Gal(b1-4)GlcNAc(b1-2)Man(a1-3)]Man(b1-4)GlcNAc(b1-4)[Fuc(a1-6)]GlcNAc
# Outline: as §1
# [33] = molecular target: Gal(b1-3)GlcNAc(b1-3)Gal(b1-4)GlcNAc(b1-6)[Gal(b1-3)GlcNAc(b1-3)]Gal(b1-4)Glc
# Outline: as §1
# [34] = molecular target: Gal(b1-3)GlcNAc(b1-3)Gal(b1-4)[Fuc(a1-3)]GlcNAc
# Outline: as §1
# [35] = molecular target: Gal(b1-3)GlcNAc(b1-3)Gal(b1-4)[Fuc(a1-3)]GlcNAc(b1-6)[Gal(b1-3)GlcNAc(b1-3)]Gal(b1-4)Glc
# Outline: as §1
# [36] = molecular target: Gal(b1-3)GlcNAc(b1-3)GalNAc
# Outline: as §1
# [37] = molecular target: Gal(b1-3)GlcNAc(b1-6)Gal(b1-4)GlcNAc
# Outline: as §1
# [38] = molecular target: Gal(b1-3)GlcNAc(b1-6)GalNAc
# Outline: as §1
binder,measurement,setting,value
B1,glycan array binding signal (z-score),[1],0.196
same,glycan array binding signal (z-score),[2],-0.82
same,glycan array binding signal (z-score),[3],0.959
same,glycan array binding signal (z-score),[4],1.46
same,glycan array binding signal (z-score),[5],1.02
same,glycan array binding signal (z-score),[6],0.92
same,glycan array binding signal (z-score),[7],-0.321
same,glycan array binding signal (z-score),[8],-0.354
same,glycan array binding signal (z-score),[9],0.083
same,glycan array binding signal (z-score),[10],0.012
same,glycan array binding signal (z-score),[11],-0.412
same,glycan array binding signal (z-score),[12],-0.247
same,glycan array binding signal (z-score),[13],-0.25
same,glycan array binding signal (z-score),[14],-0.498
same,glycan array binding signal (z-score),[15],0.61
same,glycan array binding signal (z-score),[16],-1.37
same,glycan array binding signal (z-score),[17],-0.387
same,glycan array binding signal (z-score),[18],0.392
same,glycan array binding signal (z-score),[19],-0.451
same,glycan array binding signal (z-score),[20],-0.742
same,glycan array binding signal (z-score),[21],-0.371
same,glycan array binding signal (z-score),[22],2.1
same,glycan array binding signal (z-score),[23],1.12
same,glycan array binding signal (z-score),[24],0.998
same,glycan array binding signal (z-score),[25],0.37
same,glycan array binding signal (z-score),[26],0.334
same,glycan array binding signal (z-score),[27],-0.09
same,glycan array binding signal (z-score),[28],-0.983
same,glycan array binding signal (z-score),[29],-0.017
same,glycan array binding signal (z-score),[30],-0.375
same,glycan array binding signal (z-score),[31],-0.234
same,glycan array binding signal (z-score),[32],1.4
same,glycan array binding signal (z-score),[33],0.724
same,glycan array binding signal (z-score),[34],0.725
same,glycan array binding signal (z-score),[35],-0.616
same,glycan array binding signal (z-score),[36],-1.28
same,glycan array binding signal (z-score),[37],-0.699
same,glycan array binding signal (z-score),[38],-0.496

# Some of the entries so far, as tab-separated lines.
binder	measurement	setting	value
B1	glycan array binding signal (z-score)	[30]	-0.375
same	glycan array binding signal (z-score)	[31]	-0.234
